Laboratory results from article PMC13128448.
No constants are given. Whether binding was seen depends on the method and setting. For some assays here: Binding seen in cells or lysates may run through a third protein. Some results given as binding are weak or reduced against the parent protein; the word gives no strength.

The chains behind the UniProt entries cited, without tags or fusion partners.
UniProt Q93034: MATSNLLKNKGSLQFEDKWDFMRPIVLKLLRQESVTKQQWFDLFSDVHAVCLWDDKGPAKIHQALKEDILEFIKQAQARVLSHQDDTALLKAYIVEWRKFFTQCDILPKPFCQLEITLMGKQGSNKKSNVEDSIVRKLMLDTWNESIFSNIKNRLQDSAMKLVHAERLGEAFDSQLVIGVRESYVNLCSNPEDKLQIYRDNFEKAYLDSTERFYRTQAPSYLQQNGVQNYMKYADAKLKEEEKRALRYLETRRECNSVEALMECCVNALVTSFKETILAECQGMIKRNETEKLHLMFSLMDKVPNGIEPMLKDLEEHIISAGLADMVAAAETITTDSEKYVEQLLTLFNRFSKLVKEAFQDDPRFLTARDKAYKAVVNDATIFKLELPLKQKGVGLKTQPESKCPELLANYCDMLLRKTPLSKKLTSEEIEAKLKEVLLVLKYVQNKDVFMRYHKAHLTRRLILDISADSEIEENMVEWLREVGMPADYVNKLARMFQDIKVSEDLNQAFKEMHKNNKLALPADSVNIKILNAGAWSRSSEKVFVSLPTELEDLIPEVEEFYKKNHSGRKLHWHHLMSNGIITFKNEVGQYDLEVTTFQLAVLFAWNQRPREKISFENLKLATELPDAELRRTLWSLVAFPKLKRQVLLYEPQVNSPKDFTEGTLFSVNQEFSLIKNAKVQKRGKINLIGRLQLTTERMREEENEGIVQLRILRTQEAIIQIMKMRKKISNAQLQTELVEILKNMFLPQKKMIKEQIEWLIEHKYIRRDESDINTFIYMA
UniProt Q9UBF6: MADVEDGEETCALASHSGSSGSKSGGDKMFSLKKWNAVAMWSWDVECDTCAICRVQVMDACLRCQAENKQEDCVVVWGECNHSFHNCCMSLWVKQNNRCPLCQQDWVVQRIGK
UniProt Q92466: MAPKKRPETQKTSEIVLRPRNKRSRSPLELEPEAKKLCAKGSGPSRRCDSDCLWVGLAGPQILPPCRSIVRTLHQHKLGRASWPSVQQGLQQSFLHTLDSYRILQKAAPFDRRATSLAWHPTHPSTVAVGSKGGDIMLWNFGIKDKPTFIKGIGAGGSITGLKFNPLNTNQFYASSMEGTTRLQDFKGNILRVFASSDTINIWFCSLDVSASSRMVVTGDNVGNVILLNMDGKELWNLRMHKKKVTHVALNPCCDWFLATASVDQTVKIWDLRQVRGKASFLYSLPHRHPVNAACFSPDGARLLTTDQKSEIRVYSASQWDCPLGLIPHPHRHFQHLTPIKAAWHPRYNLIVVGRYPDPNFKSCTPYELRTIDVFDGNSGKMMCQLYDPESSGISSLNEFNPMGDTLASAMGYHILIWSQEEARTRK

Assays:
[1] = target: CUL5, neddylated (chain of N8~CRL5) (UniProt Q93034); assay: cryo-EM structure; N8~CRLs (CRL1, CRL2, CRL3, CRL4A, CRL5) mixed with CSN^DM at a 3:1 ratio, 30 min on ice; no compound; both purified
[2] = target: RBX2 (chain of N8~CRL5) (human) (UniProt Q9UBF6); assay: as above
[3] = target: HBTH-tagged CSN2 (human) (UniProt P61201); assay: pull-down; streptavidin purification of HBTH-CSN2 complexes from cells with or without CSN5i-3, after in-cell formaldehyde cross-linking; immunoblotting

binding [1]	binding [2]	Substance	also measured
binds		RBX2 (chain of N8~CRL5) (from UniProt Q9UBF6 1-113)	
	binds	CSN4, subunit of CSN (from UniProt Q9BT78 1-406)	
		DDB2, endogenous (from UniProt Q92466 1-427)	binding [3]: binds
binds		CSN5^DM (CSN5 E76A/D151N), subunit of CSN^DM (from UniProt Q92905 1-334) (enzyme)	
	binds	CSN2, subunit of CSN (from UniProt P61201 1-443)	
